Laboratory results reported in US20100143371A1 (published 2010).
These are yes or no findings as the source states them, for the method shown. For some of these results: In cells and extracts the contact can be indirect. Some results given as binding are weak or reduced against the parent protein; the word gives no strength.

The chains behind the UniProt entries cited, without tags or fusion partners. Residues count along the entry.
UniProt P51813, residues 417-675: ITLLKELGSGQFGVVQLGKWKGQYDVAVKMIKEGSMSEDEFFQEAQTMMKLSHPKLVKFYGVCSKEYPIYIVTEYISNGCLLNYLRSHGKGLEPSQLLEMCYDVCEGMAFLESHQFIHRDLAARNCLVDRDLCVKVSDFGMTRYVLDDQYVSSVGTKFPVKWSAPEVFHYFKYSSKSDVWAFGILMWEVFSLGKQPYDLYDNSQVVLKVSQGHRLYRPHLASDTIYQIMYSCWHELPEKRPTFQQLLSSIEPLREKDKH

T1: endogenous Etk of NSR cells (mouse, UniProt P97504 1-651)
T1 sequence (looked up): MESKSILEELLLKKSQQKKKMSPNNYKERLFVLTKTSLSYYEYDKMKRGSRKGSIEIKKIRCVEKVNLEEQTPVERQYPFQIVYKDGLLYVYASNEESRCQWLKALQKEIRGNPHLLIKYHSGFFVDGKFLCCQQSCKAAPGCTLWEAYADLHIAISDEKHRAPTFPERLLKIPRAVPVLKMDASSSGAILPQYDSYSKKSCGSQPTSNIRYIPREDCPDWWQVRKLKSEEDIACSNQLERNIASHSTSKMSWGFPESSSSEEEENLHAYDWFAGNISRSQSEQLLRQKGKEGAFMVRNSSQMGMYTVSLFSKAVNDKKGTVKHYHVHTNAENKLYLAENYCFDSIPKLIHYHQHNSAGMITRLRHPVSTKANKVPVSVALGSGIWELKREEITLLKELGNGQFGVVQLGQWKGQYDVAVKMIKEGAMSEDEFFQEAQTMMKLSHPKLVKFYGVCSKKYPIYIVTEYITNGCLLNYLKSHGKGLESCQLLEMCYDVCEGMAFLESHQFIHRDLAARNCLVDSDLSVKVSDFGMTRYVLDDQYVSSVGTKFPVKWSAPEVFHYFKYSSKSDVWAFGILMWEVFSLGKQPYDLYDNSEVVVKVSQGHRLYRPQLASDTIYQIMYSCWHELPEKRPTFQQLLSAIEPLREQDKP

B1: L11 soluble single domain antibody (antibody, V domains shown)
VL: DIQMTQSPSSLSASVGDRVTITCRASQWIFTELAWYQQKPGKAPKLLIYNASYLQSGVPSRFSGSGSGTDFTLTISSLQPEDFATYYCQQTFTPPITFGQGTKVEIKR
notes: Tie to L11 rests on list order and numbering; not shown: c-Myc tag (detected with anti-Myc-HRP)
B2: L7 soluble single domain antibody (antibody, V domains shown)
VL: DIQMTQSPSSLSASVGDRVTITCRASQRIFTRLEWYQQKPGKAPMLLIYNVSHLQSGVPSRFSGSGSGTDFTLTISSLQPEDFATYYCQQTEIIPITFGQGTKVEIKQ
notes: Single human kappa light chain variable domain, from pDOM5 in E. coli BL21, protein L purified; not shown: c-Myc tag (detected with anti-Myc-HRP)
B3: L12 soluble single domain antibody (antibody, V domains shown)
VL: DIQMTQSPSSLSASVGDRVTITCRASQWIFDRLHWYQQKPGKAPTLLIYNSSTLQSGVPSRFSGSGSGTDFTLTISSLQPEDFATYYCQQTKSRPSTFGQGTKVEIKR
notes: as for B2
B4: L5 soluble single domain antibody (antibody, V domains shown)
VL: DIQMTQSPSSLSASVGDRVTITCRASQGIKMKLNWYQQKPGKAPKLLIYNTSHLQSGVPSRFSGSGSGTDFTLTISSLQPEDFATYYCQQHKTRPDTFGQGTKVEIKR
notes: Single human kappa light chain variable domain (domain antibody), expressed from pDOM5 in E. coli BL21, purified on protein L, about 15 kDa; the tie to L5 rests on the order of the list and the numbering (CDRs 4, 6, 8 follow 2); not shown: c-Myc tag (detected with anti-Myc-HRP)
B5: L9 soluble single domain antibody (antibody, V domains shown)
VL: DIQMTQSPSSLSASVGDRVTITCRASQAIKNKLGWYQQKPGKAPKLLIYKASYLQSGVPSRFSGSGSGTDFTLTISSLQPEDFATYYCQQMKSRPNTFGQGTKVEIKR
notes: as for B2
B6: L15 soluble single domain antibody (antibody, V domains shown)
VL: DIQMTQSPSSLSASVGDRVTITCRASQNIKTKLNWYQQKPGKAPKLLIYRVSTLQSGVPSRFSGSGSGTDFTLTISSLQPEDFATYYCQQTKKRPFTFGQGTKVEIER
notes: as for B2
B7: K5 intrabody (L5 expressed from pcDNA3.1-L5 in NSR cells) (antibody, V domains shown, not shown: small tags and cut ends)
VL: DIQMTQSPSSLSASVGDRVTITCRASQGIKMKLNWYQQKPGKAPKLLIYNTSHLQSGVPSRFSGSGSGTDFTLTISSLQPEDFATYYCQQHKTRPDTFGQGTKVEIKR
B8: K9 intrabody (L9 expressed from pcDNA3.1-L9 in NSR cells) (antibody, V domains shown, not shown: small tags and cut ends)
VL: DIQMTQSPSSLSASVGDRVTITCRASQAIKNKLGWYQQKPGKAPKLLIYKASYLQSGVPSRFSGSGSGTDFTLTISSLQPEDFATYYCQQMKSRPNTFGQGTKVEIKR
B9: K7 intrabody (L7 expressed from pcDNA3.1-L7 in NSR cells) (antibody, V domains shown, not shown: small tags and cut ends)
VL: DIQMTQSPSSLSASVGDRVTITCRASQRIFTRLEWYQQKPGKAPMLLIYNVSHLQSGVPSRFSGSGSGTDFTLTISSLQPEDFATYYCQQTEIIPITFGQGTKVEIKQ
B10: K11 intrabody (L11 expressed from pcDNA3.1-L11 in NSR cells) (antibody, V domains shown, not shown: small tags and cut ends)
VL: DIQMTQSPSSLSASVGDRVTITCRASQWIFTELAWYQQKPGKAPKLLIYNASYLQSGVPSRFSGSGSGTDFTLTISSLQPEDFATYYCQQTFTPPITFGQGTKVEIKR

The binders below were run against GST-Etk kinase domain (human, UniProt P51813 417-675) (assay: ELISA, purified domain antibody on immobilised GST-Etk).

binding, binds:
B1
B2
B3
B4
B5
B6

These binders were tested against T1, endogenous Etk of NSR cells (assay: co-immunoprecipitation from NSR cell lysate (protein L pull-down, anti-Etk blot; anti-Etk pull-down, anti-c-Myc blot)).

binding, binds:
B7
B8
B9
B10
